{"source": "patent US7893056B2", "about": "“Peptide deformylase inhibitors” (GlaxoSmithKline LLC, priority 2007, dated 2011)", "key": {"[1]": {"biological_target": "T1, Staphylococcus aureus PDF (SaPDF) (Staphylococcus aureus, UniProt P68826)", "T1 sequence (P68826 1-183)": "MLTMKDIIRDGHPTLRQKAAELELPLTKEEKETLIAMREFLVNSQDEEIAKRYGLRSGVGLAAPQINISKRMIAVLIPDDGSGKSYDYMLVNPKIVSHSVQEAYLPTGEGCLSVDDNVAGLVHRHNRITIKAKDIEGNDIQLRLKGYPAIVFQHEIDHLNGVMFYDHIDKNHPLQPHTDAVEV", "experiment": "PDF IC50 assay (FDH-coupled), S. aureus PDF", "assay_type": "biochemical", "details": "read-out: IC50, inhibition of S. aureus PDF activity"}, "[2]": {"biological_target": "T2, Streptococcus pneumoniae PDF (Streptococcus pneumoniae serotype 4, UniProt Q9F2F0)", "T2 sequence (Q9F2F0 1-203)": "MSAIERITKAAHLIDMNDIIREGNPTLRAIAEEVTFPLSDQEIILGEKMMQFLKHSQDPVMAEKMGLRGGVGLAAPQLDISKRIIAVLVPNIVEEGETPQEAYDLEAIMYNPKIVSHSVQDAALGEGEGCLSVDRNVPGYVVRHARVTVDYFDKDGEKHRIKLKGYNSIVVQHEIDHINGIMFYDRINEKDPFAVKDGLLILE", "experiment": "PDF IC50 assay (FDH-coupled), S. pneumoniae PDF", "assay_type": "biochemical", "details": "read-out: IC50, inhibition of S. pneumoniae PDF activity"}}, "note": "Some results were stated once for a whole list of compounds, not compound by compound.", "data": [{"compound": "CN(C)C1CN(c2nc(Cl)nc(NNC(=O)[C@H](CC3CCCC3)CN(O)C=O)c2F)CC12CC2", "note": "(single isomer, unassigned) [Example 150]", "values": [{"measurement": "IC50", "setting": "[1]", "result": "≤ 100", "unit": "nM"}, {"measurement": "IC50", "setting": "[2]", "result": "≤ 100", "unit": "nM"}]}, {"compound": "CN(C)C1CN(c2nc(Cl)nc(NNC(=O)[C@H](CC3CCCC3)CN(O)C=O)c2F)CC12CC2", "note": "(single isomer, unassigned) [Example 151]", "values": [{"measurement": "IC50", "setting": "[1]", "result": "≤ 100", "unit": "nM"}, {"measurement": "IC50", "setting": "[2]", "result": "≤ 100", "unit": "nM"}]}, {"compound": "CCc1nc(NNC(=O)[C@H](CC2CCCC2)CN(O)C=O)c(F)c(N2C[C@@H](C)[C@H](N(C)C)C2)n1", "note": "[Example 92, [(2R)-2-(Cyclopentylmethyl)-3-(2-{6-[(trans)-3-(dimethylamino)-4-methyl-1-pyrrolidinyl]-2-ethyl-5-fluoro-4-pyrimidinyl}hydrazino)-3-oxopropyl]hydroxyformamide]", "values": [{"measurement": "IC50", "setting": "[1]", "result": "≤ 100", "unit": "nM"}, {"measurement": "IC50", "setting": "[2]", "result": "≤ 100", "unit": "nM"}]}, {"compound": "CN(C)C1CCN(c2nc(Cl)nc(NNC(=O)[C@H](CC3CCCC3)CN(O)C=O)c2F)C1(C)C", "note": "(single isomer, unassigned) [Example 166]", "values": [{"measurement": "IC50", "setting": "[1]", "result": "≤ 100", "unit": "nM"}, {"measurement": "IC50", "setting": "[2]", "result": "≤ 100", "unit": "nM"}]}, {"compound": "CN(C)C1CN(c2nc(Cl)nc(NNC(=O)[C@H](CC3CCCC3)CN(O)C=O)c2F)CC1(C)C", "note": "(single isomer, unassigned) [Example 160]", "values": [{"measurement": "IC50", "setting": "[1]", "result": "≤ 100", "unit": "nM"}, {"measurement": "IC50", "setting": "[2]", "result": "≤ 100", "unit": "nM"}]}, {"compound": "CN(C)C1CN(c2nc(Cl)nc(NNC(=O)[C@H](CC3CCCC3)CN(O)C=O)c2F)C(C)(C)C1", "note": "(single isomer, unassigned) [Example 196]", "values": [{"measurement": "IC50", "setting": "[1]", "result": "≤ 100", "unit": "nM"}, {"measurement": "IC50", "setting": "[2]", "result": "≤ 100", "unit": "nM"}]}, {"compound": "CN(C)C1CCN(c2nc(Cl)nc(NNC(=O)[C@H](CC3CCCC3)CN(O)C=O)c2F)C1(C)C", "note": "(single isomer, unassigned) [Example 167]", "values": [{"measurement": "IC50", "setting": "[1]", "result": "≤ 100", "unit": "nM"}, {"measurement": "IC50", "setting": "[2]", "result": "≤ 100", "unit": "nM"}]}, {"compound": "CCN(CC)C(=O)[C@@H]1CCCN1c1nc(Cl)nc(NNC(=O)[C@H](CC2CCCC2)CN(O)C=O)c1F", "note": "[Example 260, 1-{2-Chloro-6-[2-((2R)-3-cyclopentyl-2-{[formyl(hydroxy)amino]methyl}propanoyl)hydrazino]-5-fluoro-4-pyrimidinyl}-N,N-dimethyl-L-prolinamide]", "values": [{"measurement": "IC50", "setting": "[1]", "result": "≤ 100", "unit": "nM"}, {"measurement": "IC50", "setting": "[2]", "result": "≤ 100", "unit": "nM"}]}, {"compound": "C[C@@H]1CN(c2nc(Cl)nc(NNC(=O)[C@H](CC3CCCC3)CN(O)C=O)c2F)[C@@H](C)CN1C", "note": "(single isomer, unassigned) [Example 158]", "values": [{"measurement": "IC50", "setting": "[1]", "result": "≤ 100", "unit": "nM"}, {"measurement": "IC50", "setting": "[2]", "result": "≤ 100", "unit": "nM"}]}, {"compound": "CN(C)C1CN(c2nc(Cl)nc(NNC(=O)[C@H](CC3CCCC3)CN(O)C=O)c2F)CC1(C)C", "note": "(single isomer, unassigned) [Example 159]", "values": [{"measurement": "IC50", "setting": "[1]", "result": "≤ 100", "unit": "nM"}, {"measurement": "IC50", "setting": "[2]", "result": "≤ 100", "unit": "nM"}]}]}
